# Source: patent US20180348222A1, “BUF[…] TREATMENT OF NON-SMALL CELL LUNG CANCER” (priority 2017, published 2018)
# For at least one compound, name, drawing or mass did not settle the structure.
# Test system: A549 and H1975 cells
# Assay: Apoptosis assay, co-treatment with Proscillaridin A
# Assay type: cell-based
# Settings: JNK inhibitor co-treatment
# Experimental: A549, H1975 and HCC827 cells (1×10^5 cells /well) were seeded in a 6 -well plate for 24 h, and treated with the indicated concentrations of Proscillaridin A for an additional 24 h at 37° C. After indicated hours, the cells were washed by ice-cold 1×PBS once and harvested by trypsination. Then cell were centrifuged, collected and resuspended in ice-cold 1×PBS. After removing the supernatants, cell pellets were re-suspended in 100 μL 1× Annexin-binding buffer. The cells were then double-stained with Annexin-V FITC and PI (100 μg/mL) of 2 μL respectively for 15 min at room temperature in dark. After that, 300 μL 1× Annexin-binding buffer was added. Apoptotic cells were quantitatively counted by a BD Aria III Flow Cytometer (BD Biosciences, San Jose, Calif., USA).
smiles,measurement,value
Oc1c2ccccc2c2c3c(cccc13)N=N2 [SP600125],apoptotic cells after co-treatment with Proscillaridin A,only slightly reduced the apoptotic cells
